The text below walks through data of PubChem BioAssay AID248 (DTP/NCI, 2004).

For this test, the system named is L1210 leukemia ip in BDF1 mice, survival T/C. Nature of the test: NCI In Vivo Anticancer Drug Screen. Data for tumor model L1210 Leukemia (intraperitoneal) in B6D2F1 (BDF1) mice. Particulars: T/C endpoint: mean survival time, higher T/C = longer survival.
Setting [1] is: dose: 200.0 mg/kg/injection, schedule: Q01DX009 (ip), vehicle: saline.
Where [2] appears, read: dose: 200.0 mg/kg/injection, schedule: Q04DX003 (ip), vehicle: saline.
Setting [3] is: dose: 400.0 mg/kg/injection, schedule: Q04DX003 (ip), vehicle: saline.
[4] abbreviates: dose: 400.0 mg/kg/injection, schedule: Q01DX009 (ip), vehicle: saline with Tween-80.
Where [5] appears, read: dose: 200.0 mg/kg/injection, schedule: Q04DX003 (ip), vehicle: saline with Tween-80.
Where [6] appears, read: dose: 400.0 mg/kg/injection, schedule: Q04DX003 (ip), vehicle: saline with Tween-80.
The mark [7] stands for this setting: dose: 200.0 mg/kg/injection, schedule: Q04DX002 (ip), vehicle: Klucel (hydroxypropylcellulose) (HPC).
Setting [8] is: dose: 400.0 mg/kg/injection, schedule: Q04DX002 (ip), vehicle: Klucel (hydroxypropylcellulose) (HPC).
Setting [9] is: dose: 400.0 mg/kg/injection, schedule: Q04DX003 (ip), vehicle: Klucel (hydroxypropylcellulose) (HPC).
Setting [10] is: dose: 200.0 mg/kg/injection, schedule: Q04DX002 (ip), vehicle: saline with Tween-80.
[11] abbreviates: dose: 300.0 mg/kg/injection, schedule: Q01DX001 (ip), vehicle: saline.
The mark [12] stands for this setting: dose: 100.0 mg/kg/injection, schedule: Q04DX002 (ip), vehicle: saline with Tween-80.
[13] abbreviates: dose: 400.0 mg/kg/injection, schedule: Q04DX002 (ip), vehicle: saline with Tween-80.

Each structure is given as a SMILES string. The list does not hold the whole screen: it is rich in T/C values a quarter to a half above the control, in often repeated tests (any T/C) and in doses without a T/C. Other doses and runs of a compound stand elsewhere. T/C: endpoint of the treated group in % of that of the vehicle group. Some entries give survivors of the animals treated and no T/C: the source holds a T/C of zero for them, seemingly a mark for toxic or unscored doses. Some doses without a T/C left all or most animals alive at the check, yet need not have been tolerated: survival well below the control is almost never listed, so the zero probably covers shortened survival too. Counts of survivors are from the toxicity check (mostly the fifth day) where no day follows; animals may have died later. Schedules are NCI's codes, taken here to give the interval after Q, in days (D) or hours (H), and the number of doses after X. Some schedule codes hold Z or #, which are not explained here. Where survival is the endpoint, the PubChem record calls one and a half times the control and up active, and a quarter to a half above the control has no call in these data; cut-offs in other NCI protocols can differ.

As to `COc1ccc(OC)c(NC(=O)CI)c1`, the survivor count (dose: 100.0 mg/kg/injection, schedule: Q01DX001 (ip), vehicle: Klucel (hydroxypropylcellulose) (HPC)) was 0 of 6; the survivor count (dose: 200.0 mg/kg/injection, schedule: Q01DX001 (ip), vehicle: Klucel (hydroxypropylcellulose) (HPC)) was 1 of 6; the survivor count (dose: 400.0 mg/kg/injection, schedule: Q01DX001 (ip), vehicle: Klucel (hydroxypropylcellulose) (HPC)) is recorded as 0 of 6.
Consider `CCNC(Cc1ccccc1)C1CCCO1` (stereo unspecified), for which the survivor count is 0 of 6 under setting [1]; 2 of 4 under setting [2]; 0 of 6 (dose: 400.0 mg/kg/injection, schedule: Q01DX009 (ip), vehicle: saline); 0 of 4 under setting [3].
For the compound `CCOC(=O)c1ccc(N(CC(N)O)S(=O)(=O)c2ccc(C)cc2)cc1` (stereo unspecified), the survivor count is on record as 0 of 6 (dose: 100.0 mg/kg/injection, schedule: Q01DX009 (ip), vehicle: saline with Tween-80); 0 of 6 (dose: 200.0 mg/kg/injection, schedule: Q01DX009 (ip), vehicle: saline with Tween-80); 0 of 6 under setting [4].
Turning to `CCOC(=O)CNC(=O)NCc1ccc2c(c1)OCO2`, the survivor count under setting [4] was 3 of 6.
Turning to `CC(=O)Oc1cc2c(OC(C)=O)c(-c3c(C)cc4c(C(C)C)c(OC(C)=O)c(OC(C)=O)cc4c3OC(C)=O)c(C)cc2c(C(C)C)c1OC(C)=O`, the survivor count reads like this: under setting [5], 6 of 6; under setting [6], 6 of 6.
On to `CC(C)(C)c1ccc(CBr)cc1`, for which the survivor count reads like this: (dose: 100.0 mg/kg/injection, schedule: Q04DX002 (ip), vehicle: Klucel (hydroxypropylcellulose) (HPC)) 0 of 3; under setting [7], 1 of 3; under setting [8], 2 of 3.
Turning to `C[Si](C)(C)c1ccc(CCN2CC2)s1`, the survivor count is, setting by setting: (dose: 100.0 mg/kg/injection, schedule: Q01DX001 (ip), vehicle: carboxymethylcellulose (CMC)) 0 of 4; (dose: 200.0 mg/kg/injection, schedule: Q01DX001 (ip), vehicle: carboxymethylcellulose (CMC)) 0 of 4; (dose: 400.0 mg/kg/injection, schedule: Q01DX001 (ip), vehicle: carboxymethylcellulose (CMC)) 0 of 4.
Consider `CC1(C)OC(=O)C2CCCCC21` (stereo unspecified), for which the survivor count (dose: 100.0 mg/kg/injection, schedule: Q01DX009 (ip), vehicle: saline) is on record as 0 of 6 and the survivor count (dose: 400.0 mg/kg/injection, schedule: Q01DX001 (ip), vehicle: saline) is recorded as 1 of 6.
Consider `NC(N)=NCCc1ccccc1`, for which the survivor count runs as follows: (dose: 100.0 mg/kg/injection, schedule: Q04DX003 (ip), vehicle: saline with Tween-80) 0 of 6; under setting [5], 0 of 6; under setting [6], 0 of 6.
For `O=C(Nc1ccc(Nc2ccccc2)cc1)Nc1cccc2ccccc12`, the survivor count under setting [9] is 5 of 6.
Regarding `CCCC(CCC)NCC(C)O` (stereo unspecified), the survivor count reads like this: (dose: 150.0 mg/kg/injection, schedule: Q01DX001 (ip), vehicle: acid diluted with saline) 0 of 6; (dose: 300.0 mg/kg/injection, schedule: Q01DX001 (ip), vehicle: acid diluted with saline) 0 of 6.
`CCCCN(CCCC)C(=N)C(=N)N(CCCC)CCCC`: the survivor count under setting [10] is 1 of 3.
As for `NC(=O)c1cccc([N+](=O)[O-])c1Br`, the survivor count under setting [9] was 3 of 6.
On to `CCCCCCCCCCCCCC[n+]1ccc(C#N)cc1`, for which the survivor count runs as follows: (dose: 75.0 mg/kg/injection, schedule: Q01DX001 (ip), vehicle: saline) 3 of 6; (dose: 150.0 mg/kg/injection, schedule: Q01DX001 (ip), vehicle: saline) 0 of 6; under setting [11], 0 of 6.
As for `Cc1cc(N(CCCl)CCCl)ccc1N=Nc1ccccc1C(=O)O`, the T/C is, setting by setting: (dose: 6.2 mg/kg/injection, schedule: Q01DX Z (ip), vehicle: carboxymethylcellulose (CMC)) 127 % of control; (dose: 12.5 mg/kg/injection, schedule: Q01DX Z (ip), vehicle: carboxymethylcellulose (CMC)) 130 % of control; (dose: 20.0 mg/kg/injection, schedule: Q01DX010 (ip), vehicle: saline) 145 % of control. For the same compound, the survivor count is recorded as 6 of 6 (dose: 40.0 mg/kg/injection, schedule: Q01DX010 (ip), vehicle: saline); 6 of 6 (dose: 50.0 mg/kg/injection, schedule: Q01DX Z (ip), vehicle: carboxymethylcellulose (CMC)); 3 of 6 (dose: 60.0 mg/kg/injection, schedule: Q01DX Z (ip), vehicle: carboxymethylcellulose (CMC)).
For `COc1ccc(-n2cc3c(=O)nccc-3c3ccccc32)cc1OC`, the survivor count under setting [11] is on record as 0 of 6.
On to `O=[N+]([O-])c1cnc(C2=C(O)c3ccccc3CC2)s1`, for which the survivor count is 0 of 3 (dose: 200.0 mg/kg/injection, schedule: Q01DX001 (ip), vehicle: saline with Tween-80) and 1 of 3 (dose: 400.0 mg/kg/injection, schedule: Q01DX001 (ip), vehicle: saline with Tween-80).
For the compound `CCN=C(N)CSS(=O)(=O)O`, the survivor count reads like this: under setting [7], 1 of 3; under setting [8], 0 of 3.
`O=c1cc[nH]c2cc(Cl)ccc12`: the survivor count under setting [1] was 5 of 6.
As to `CN=C(NC)c1ccc(NC(=O)c2cc(C)cc(C(=O)Nc3ccc(C(=NC)NC)cc3)c2)cc1`, the survivor count (dose: 60.0 mg/kg/injection, schedule: Q01DX Z (ip), vehicle: saline) is given as 0 of 6 and the survivor count (dose: 120.0 mg/kg/injection, schedule: Q01DX Z (ip), vehicle: saline) is 0 of 6.
In the case of `CCCCC(CC)COP(=O)(CC(CC)CCCC)OCC(CC)CCCC` (stereo unspecified), the survivor count under setting [1] is 4 of 6.
In the case of `c1cc(-n2nnc3cnccc32)ccn1`, the survivor count is given as 0 of 6 under setting [2] and 4 of 6 under setting [3].
For the compound `C[CH2][Sn]([CH2]C)([CH2]C)[S]Cc1ccccc1`, the survivor count is recorded as 0 of 3 under setting [12], 0 of 3 under setting [10] and 0 of 3 under setting [13].
Consider `Cc1nc(N)ncc1CCC1OCCO1`, for which the survivor count is reported as 3 of 3 under setting [7] and 0 of 3 under setting [8].
As to `CCOC(=O)CC(C)=O.[Cu+2]`, the survivor count runs as follows: (dose: 35.0 mg/kg/injection, schedule: Q01DX009 (ip), vehicle: Klucel (hydroxypropylcellulose) (HPC)) 2 of 6; (dose: 50.0 mg/kg/injection, schedule: Q04DX003 (ip), vehicle: Klucel (hydroxypropylcellulose) (HPC)) 2 of 6; (dose: 55.0 mg/kg/injection, schedule: Q01DX009 (ip), vehicle: Klucel (hydroxypropylcellulose) (HPC)) 0 of 6; (dose: 80.0 mg/kg/injection, schedule: Q01DX009 (ip), vehicle: Klucel (hydroxypropylcellulose) (HPC)) 0 of 6.
With `COC1OC(COC(C)=O)C(OC(C)=O)C(OC(C)=O)[CH]1[Hg][O]C(C)=O` (stereo unspecified), the survivor count (dose: 100.0 mg/kg/injection, schedule: Q04DX003 (ip), vehicle: saline sonified) is reported as 0 of 6; the survivor count (dose: 200.0 mg/kg/injection, schedule: Q04DX003 (ip), vehicle: saline sonified) was 0 of 6; the survivor count (dose: 400.0 mg/kg/injection, schedule: Q04DX003 (ip), vehicle: saline sonified) was 0 of 6.
Turning to `OC[CH2][Sb]([Cl])([Cl])([c]1ccccc1)[c]1ccccc1`, the survivor count reads like this: under setting [12], 0 of 3; under setting [10], 0 of 3; under setting [13], 0 of 3.
Take `CCc1cccc[n+]1CC(=O)c1ccc(-c2ccccc2)cc1`: the survivor count reads like this: (dose: 200.0 mg/kg/injection, schedule: Q04DX003 (ip), vehicle: Klucel (hydroxypropylcellulose) (HPC)) 0 of 6; under setting [9], 0 of 6.
